# Results from the supplement of paper PMC8728848.
# The other results are listed elsewhere or left out.
# Legend:
# Test in all cases: glycan array binding signal (z-score within array); higher = stronger binding
# Details in all cases: glycan notation: IUPAC condensed, linker removed
# [1] = target: Gal(b1-4)Glc
# Outline: (§1)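 Negative Z-scores can be read as non-binding. The Z-score is calculated within each array and then averaged across arrays of one protein sequence at different concentrations or buffers and across linkers. Arrays, 3228 in all, were curated from the Consortium for Functional Glycomics database and kept only where the protein sequence was available.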
# [2] = target: Gal(b1-4)Glc6S
# Outline: as §1
# [3] = target: Gal(b1-4)GlcNAc
# Outline: as §1
# [4] = target: Gal(b1-4)GlcNAc(a1-6)Gal(b1-4)GlcNAc
# Outline: as §1
# [5] = target: Gal(b1-4)GlcNAc(b1-2)Man
# Outline: as §1
# [6] = target: Gal(b1-4)GlcNAc(b1-2)Man(a1-3)Man(b1-4)GlcNAc(b1-4)GlcNAc
# Outline: as §1
# [7] = target: Gal(b1-4)GlcNAc(b1-2)Man(a1-3)[Gal(b1-4)GlcNAc(b1-2)Man(a1-6)]Man(b1-4)GlcNAc(b1-4)GlcNAc
# Outline: as §1
# [8] = target: Gal(b1-4)GlcNAc(b1-2)Man(a1-3)[Gal(b1-4)GlcNAc(b1-2)Man(a1-6)]Man(b1-4)GlcNAc(b1-4)[Fuc(a1-6)]GlcNAc
# Outline: as §1
# [9] = target: Gal(b1-4)GlcNAc(b1-2)Man(a1-3)[Gal(b1-4)GlcNAc(b1-2)Man(a1-6)][Gal(b1-4)GlcNAc(b1-4)]Man(b1-4)GlcNAc(b1-4)[Fuc(a1-6)]GlcNAc
# Outline: as §1
# [10] = target: Gal(b1-4)GlcNAc(b1-2)Man(a1-3)[Gal(b1-4)GlcNAc(b1-2)Man(a1-6)][GlcNAc(b1-4)]Man(b1-4)GlcNAc(b1-4)[Fuc(a1-6)]GlcNAc
# Outline: as §1
# [11] = target: Gal(b1-4)GlcNAc(b1-2)Man(a1-3)[GlcNAc(b1-2)Man(a1-6)]Man(b1-4)GlcNAc(b1-4)GlcNAc
# Outline: as §1
# [12] = target: Gal(b1-4)GlcNAc(b1-2)Man(a1-3)[GlcNAc(b1-4)][Gal(b1-4)GlcNAc(b1-2)Man(a1-6)]Man(b1-4)GlcNAc(b1-4)GlcNAc
# Outline: as §1
# [13] = target: Gal(b1-4)GlcNAc(b1-2)Man(a1-3)[Man(a1-6)]Man(b1-4)GlcNAc(b1-4)GlcNAc
# Outline: as §1
# [14] = target: Gal(b1-4)GlcNAc(b1-2)Man(a1-6)Man(b1-4)GlcNAc(b1-4)GlcNAc
# Outline: as §1
# [15] = target: Gal(b1-4)GlcNAc(b1-2)Man(a1-6)[GlcNAc(b1-2)Man(a1-3)]Man(b1-4)GlcNAc(b1-4)GlcNAc
# Outline: as §1
# [16] = target: Gal(b1-4)GlcNAc(b1-2)Man(a1-6)[Man(a1-3)]Man(b1-4)GlcNAc(b1-4)GlcNAc
# Outline: as §1
# [17] = target: Gal(b1-4)GlcNAc(b1-2)[Gal(b1-4)GlcNAc(b1-4)]Man(a1-3)[Gal(b1-4)GlcNAc(b1-2)Man(a1-6)]Man(b1-4)GlcNAc(b1-4)GlcNAc
# Outline: as §1
# [18] = target: Gal(b1-4)GlcNAc(b1-2)[Gal(b1-4)GlcNAc(b1-4)]Man(a1-3)[Gal(b1-4)GlcNAc(b1-2)[Gal(b1-4)GlcNAc(b1-6)]Man(a1-6)]Man(b1-4)GlcNAc(b1-4)GlcNAc
# Outline: as §1
# [19] = target: Gal(b1-4)GlcNAc(b1-2)[Gal(b1-4)GlcNAc(b1-4)]Man(a1-3)[GlcNAc(b1-4)][Gal(b1-4)GlcNAc(b1-2)Man(a1-6)]Man(b1-4)GlcNAc(b1-4)GlcNAc
# Outline: as §1
# [20] = target: Gal(b1-4)GlcNAc(b1-2)[Gal(b1-4)GlcNAc(b1-4)]Man(a1-3)[GlcNAc(b1-4)][Gal(b1-4)GlcNAc(b1-2)[Gal(b1-4)GlcNAc(b1-6)]Man(a1-6)]Man(b1-4)GlcNAc(b1-4)GlcNAc
# Outline: as §1
# [21] = target: Gal(b1-4)GlcNAc(b1-2)[Gal(b1-4)GlcNAc(b1-6)]Man(a1-6)[Gal(b1-4)GlcNAc(b1-2)Man(a1-3)]Man(b1-4)GlcNAc(b1-4)GlcNAc
# Outline: as §1
# [22] = target: Gal(b1-4)GlcNAc(b1-2)[Gal(b1-4)GlcNAc(b1-6)]Man(a1-6)[Gal(b1-4)GlcNAc(b1-2)Man(a1-3)]Man(b1-4)GlcNAc(b1-4)[Fuc(a1-6)]GlcNAc
# Outline: as §1
# [23] = target: Gal(b1-4)GlcNAc(b1-2)[Gal(b1-4)GlcNAc(b1-6)]Man(a1-6)[GlcNAc(b1-4)][Gal(b1-4)GlcNAc(b1-2)Man(a1-3)]Man(b1-4)GlcNAc(b1-4)GlcNAc
# Outline: as §1
# [24] = target: Gal(b1-4)GlcNAc(b1-2)[Gal(b1-4)GlcNAc(b1-6)]Man(a1-6)[GlcNAc(b1-4)][Gal(b1-4)GlcNAc(b1-2)[Gal(b1-4)GlcNAc(b1-4)]Man(a1-3)]Man(b1-4)GlcNAc(b1-4)[Fuc(a1-6)]GlcNAc
# Outline: as §1
# [25] = target: Gal(b1-4)GlcNAc(b1-3)Gal(b1-3)GalNAc
# Outline: as §1
# [26] = target: Gal(b1-4)GlcNAc(b1-3)Gal(b1-3)GlcNAc
# Outline: as §1
# [27] = target: Gal(b1-4)GlcNAc(b1-3)Gal(b1-4)Glc
# Outline: as §1
# [28] = target: Gal(b1-4)GlcNAc(b1-3)Gal(b1-4)GlcNAc
# Outline: as §1
# [29] = target: Gal(b1-4)GlcNAc(b1-3)Gal(b1-4)GlcNAc(b1-2)Man(a1-3)[Gal(b1-4)GlcNAc(b1-3)Gal(b1-4)GlcNAc(b1-2)Man(a1-6)]Man(b1-4)GlcNAc(b1-4)GlcNAc
# Outline: as §1
# [30] = target: Gal(b1-4)GlcNAc(b1-3)Gal(b1-4)GlcNAc(b1-2)Man(a1-3)[Gal(b1-4)GlcNAc(b1-3)Gal(b1-4)GlcNAc(b1-2)Man(a1-6)]Man(b1-4)GlcNAc(b1-4)[Fuc(a1-6)]GlcNAc
# Outline: as §1
# [31] = target: Gal(b1-4)GlcNAc(b1-3)Gal(b1-4)GlcNAc(b1-2)[Gal(b1-4)GlcNAc(b1-3)Gal(b1-4)GlcNAc(b1-6)]Man(a1-6)[Gal(b1-4)GlcNAc(b1-3)Gal(b1-4)GlcNAc(b1-2)Man(a1-3)]Man(b1-4)GlcNAc(b1-4)GlcNAc
# Outline: as §1
# [32] = target: Gal(b1-4)GlcNAc(b1-3)Gal(b1-4)GlcNAc(b1-2)[Gal(b1-4)GlcNAc(b1-3)Gal(b1-4)GlcNAc(b1-6)]Man(a1-6)[Gal(b1-4)GlcNAc(b1-3)Gal(b1-4)GlcNAc(b1-2)Man(a1-3)]Man(b1-4)GlcNAc(b1-4)[Fuc(a1-6)]GlcNAc
# Outline: as §1
# [33] = target: Gal(b1-4)GlcNAc(b1-3)Gal(b1-4)GlcNAc(b1-3)Gal(b1-4)GlcNAc
# Outline: as §1
# [34] = target: Gal(b1-4)GlcNAc(b1-3)Gal(b1-4)GlcNAc(b1-3)Gal(b1-4)GlcNAc(b1-2)Man(a1-3)[Gal(b1-4)GlcNAc(b1-3)Gal(b1-4)GlcNAc(b1-3)Gal(b1-4)GlcNAc(b1-2)Man(a1-6)]Man(b1-4)GlcNAc(b1-4)GlcNAc
# Outline: as §1
# [35] = target: Gal(b1-4)GlcNAc(b1-3)Gal(b1-4)GlcNAc(b1-3)Gal(b1-4)GlcNAc(b1-2)Man(a1-3)[Gal(b1-4)GlcNAc(b1-3)Gal(b1-4)GlcNAc(b1-3)Gal(b1-4)GlcNAc(b1-2)Man(a1-6)]Man(b1-4)GlcNAc(b1-4)[Fuc(a1-6)]GlcNAc
# Outline: as §1
# [36] = target: Gal(b1-4)GlcNAc(b1-3)Gal(b1-4)GlcNAc(b1-3)Gal(b1-4)GlcNAc(b1-2)[Gal(b1-4)GlcNAc(b1-3)Gal(b1-4)GlcNAc(b1-3)Gal(b1-4)GlcNAc(b1-6)]Man(a1-6)[Gal(b1-4)GlcNAc(b1-3)Gal(b1-4)GlcNAc(b1-3)Gal(b1-4)GlcNAc(b1-2)Man(a1-3)]Man(b1-4)GlcNAc(b1-4)[Fuc(a1-6)]GlcNAc
# Outline: as §1
# [37] = target: Gal(b1-4)GlcNAc(b1-3)Gal(b1-4)GlcNAc(b1-3)Gal(b1-4)GlcNAc(b1-3)Gal(b1-4)GlcNAc(b1-2)Man(a1-3)[Gal(b1-4)GlcNAc(b1-3)Gal(b1-4)GlcNAc(b1-3)Gal(b1-4)GlcNAc(b1-3)Gal(b1-4)GlcNAc(b1-2)Man(a1-6)]Man(b1-4)GlcNAc(b1-4)GlcNAc
# Outline: as §1
binder,measurement,setting,value
PX14404-bvu-534-26-534 (Bacteroides vulgatus) (protein) EDPRGKLTPENFFSTQDELNMSIYALYQKVNLSQVYTNMQLPQWQGDDITTNPGSNKQPAAEMDKFAAANNNKGVKDAWNMHYAIVKAANLIIQGASKTPTTQDEINIALGQAKFWRAYAYFTLVRLWGPLPMNLDNVNDDYTKPLSPVEEVYGHIVQDLTEAEAVLPTGYSGSPRFLNGVNVYVTRQAAKSTLAAVYMAMAGWPMNKTEYYAKAAEKAKEVIEGVNRGEYEYKLDKDYKDVYAMSNNYNNETVLGINYSPFVDWAQDSELTSCNQFESLGGWGDAWGEIRFWKEFPDGPRKDATYDPKIRLKDGTLVDWWELKEDGTPVVPEHHPMFSIFSVNWDPASKVNTSAPYDYTKPASQNMCNDHRHRIIRYSEVLLWYAEAKARTGQTDELAFKCLNDVRERAGLEPLTGLSADDLAEAAYKEHGWEVAGYWVALVTRRADQFRMNRLKDTFKERAENTAVEVADGILVKESVEYTNRTWSDNLMYLPYPDMDSQKNPNLVR,glycan array binding signal (z-score),[1],-0.037
same,glycan array binding signal (z-score),[2],0.084
same,glycan array binding signal (z-score),[3],-0.18
same,glycan array binding signal (z-score),[4],-1.04
same,glycan array binding signal (z-score),[5],-0.537
same,glycan array binding signal (z-score),[6],-0.296
same,glycan array binding signal (z-score),[7],-1.02
same,glycan array binding signal (z-score),[8],0.589
same,glycan array binding signal (z-score),[9],-1.6
same,glycan array binding signal (z-score),[10],-0.69
same,glycan array binding signal (z-score),[11],-0.124
same,glycan array binding signal (z-score),[12],-1.44
same,glycan array binding signal (z-score),[13],1.36
same,glycan array binding signal (z-score),[14],-0.242
same,glycan array binding signal (z-score),[15],-1.25
same,glycan array binding signal (z-score),[16],-0.492
same,glycan array binding signal (z-score),[17],-0.23
same,glycan array binding signal (z-score),[18],-0.575
same,glycan array binding signal (z-score),[19],0.657
same,glycan array binding signal (z-score),[20],0.259
same,glycan array binding signal (z-score),[21],-0.038
same,glycan array binding signal (z-score),[22],-0.583
same,glycan array binding signal (z-score),[23],-0.45
same,glycan array binding signal (z-score),[24],-1.15
same,glycan array binding signal (z-score),[25],-0.847
same,glycan array binding signal (z-score),[26],-0.873
same,glycan array binding signal (z-score),[27],-0.063
same,glycan array binding signal (z-score),[28],-0.608
same,glycan array binding signal (z-score),[29],0.621
same,glycan array binding signal (z-score),[30],0.378
same,glycan array binding signal (z-score),[31],0.713
same,glycan array binding signal (z-score),[32],0.612
same,glycan array binding signal (z-score),[33],-1.59
same,glycan array binding signal (z-score),[34],1.01
same,glycan array binding signal (z-score),[35],0.054
same,glycan array binding signal (z-score),[36],0.343
same,glycan array binding signal (z-score),[37],-0.238

# Shown bar-delimited: part of the list above
binder | measurement | setting | value
PX14404-bvu-534-26-534 (Bacteroides vulgatus) (protein) EDPRGKLTPENFFSTQDELNMSIYALYQKVNLSQVYTNMQLPQWQGDDITTNPGSNKQPAAEMDKFAAANNNKGVKDAWNMHYAIVKAANLIIQGASKTPTTQDEINIALGQAKFWRAYAYFTLVRLWGPLPMNLDNVNDDYTKPLSPVEEVYGHIVQDLTEAEAVLPTGYSGSPRFLNGVNVYVTRQAAKSTLAAVYMAMAGWPMNKTEYYAKAAEKAKEVIEGVNRGEYEYKLDKDYKDVYAMSNNYNNETVLGINYSPFVDWAQDSELTSCNQFESLGGWGDAWGEIRFWKEFPDGPRKDATYDPKIRLKDGTLVDWWELKEDGTPVVPEHHPMFSIFSVNWDPASKVNTSAPYDYTKPASQNMCNDHRHRIIRYSEVLLWYAEAKARTGQTDELAFKCLNDVRERAGLEPLTGLSADDLAEAAYKEHGWEVAGYWVALVTRRADQFRMNRLKDTFKERAENTAVEVADGILVKESVEYTNRTWSDNLMYLPYPDMDSQKNPNLVR | glycan array binding signal (z-score) | [28] | -0.608
same | glycan array binding signal (z-score) | [29] | 0.621
same | glycan array binding signal (z-score) | [30] | 0.378
